Record: PubChem BioAssay AID1259254 (NCATS, 2017)
Purpose: 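Gene knock-downs that lead to re-replication, shown by excess G2 DNA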 (primary screen). Cells: human HCT116 colorectal cancer cells. Reagent: single siRNA against human genes. Timing: 3 days. Measured: 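Imaged Hoechst DNA stain sorts each cell into a cycle phase by DNA amount; per plate, G2 fraction set to 0% for non-targeting and 100% for GMNN siRNA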. Reading the numbers: G2 robust z-score: higher = more G2 cells, more excess DNA replication. Rule for the call: 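An siRNA counts as active if its G2 robust z-score lies at least 5 MADs above the screen median; here such calls match roughly 38% of GMNN control or more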.
Here is a random part of about 59,000 reagents tested. About 1,550 of all reagents (2.6%) count as active. 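G2 share is only a proxy for re-replication; each gene was hit by three separate siRNAs, and active genes were retested.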 A number with no mark means an inactive call. The numbers tell different reagents against one gene apart. Further read-outs or replicates are left out here. Not given: the amount of reagent.

no.	target	siRNA no.	G2 robust z-score
1	CPT1C	1	-1.2
2	CPT1C	2	-0.899
3	CPT1C	3	0.0365
4	CBL	1	-0.857
5	CBL	2	5.04 (active)
6	CBL	3	-0.693
7	AGO2	1	-1.17
8	AGO2	2	-0.585
9	AGO2	3	-0.907
10	WDR11	1	0.0485
11	WDR11	2	0.381
12	WDR11	3	-0.891
13	NRN1	1	-0.807
14	NRN1	2	-1.09
15	NRN1	3	1.79
16	STARD7	1	1.7
17	STARD7	2	2.05
18	STARD7	3	1.2
19	GPR146	1	0.535
20	GPR146	2	-1.24
21	GPR146	3	6.94 (active)
22	OVOS1P	1	1.42
23	OVOS1P	2	-0.559
24	OVOS1P	3	0.306
25	WDR75	1	0.0206
26	WDR75	2	0.127
27	WDR75	3	1.5
28	IQSEC3P3	1	-0.597
29	IQSEC3P3	2	3.27
30	IQSEC3P3	3	-0.36
